Source: PubChem BioAssay AID504774 (Drosophila RNAi Screening Center, 2011)
The screen tested about 23,000 reagents; below is an unselected part of those that have a named target and a result. 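Values are quantile-normalised luminescence on an arbitrary scale; higher means more cells surviving MMS.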 The numbers tell different reagents against one gene apart. A plus sign joins genes that one reagent is predicted to hit. Reagent sequences are not shown.

- Purpose: 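Fly genes whose loss alters survival after alkylation damage to DNA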 (primary screen)
- System: Drosophila Kc167 cells
- Reagent: long dsRNA against Drosophila genes, about 0.25 µg dsRNA per well
- Timing: about 6 days: 3 days knock-down, then 3 days with or without MMS
- Treatment: methyl methanesulphonate 0.004% (w/v) for 3 days after knock-down
- Detection: 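ATP-dependent luminescence as a measure of live cells in MMS-exposed wells, quantile normalised within each plate, with replicate values also given as a mean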
- Direction: mean viability with MMS and viability with MMS: higher = more surviving cells after MMS

gene knocked down | reagent no. | mean viability with MMS | viability with MMS, replicate 1 | viability with MMS, replicate 2
Atg10 (Autophagy-related 10) | 1 | 3.52e6 | 4.04e6 | 3.95e6
FASN2 (Fatty acid synthase 2) | 1 | 3.45e6 | 4.00e6 | 3.86e6
FASN2 (Fatty acid synthase 2) | 2 | 3.59e6 | 4.06e6 | 4.09e6
Tpc2 | 1 | 3.37e6 | 3.75e6 | 3.81e6
Task6 (TWIK-related acid-sensitive K[+] channel 6) | 1 | 3.70e6 | 4.22e6 | 4.18e6
CG11158 | 1 | 3.50e6 | 3.95e6 | 3.98e6
CG7300 | 1 | 3.48e6 | 3.95e6 | 3.93e6
Elal (Elastin-like) | 1 | 3.48e6 | 3.82e6 | 4.07e6
Cdc37 (Cell division cycle 37) | 1 | 3.54e6 | 4.12e6 | 3.89e6
CG8132 | 1 | 3.77e6 | 4.13e6 | 4.25e6
gwl (greatwall) | 1 | 3.44e6 | 3.96e6 | 3.84e6
Gr59d (Gustatory receptor 59d) | 1 | 3.89e6 | 4.08e6 | 4.53e6
CG31183 | 1 | 3.61e6 | 4.19e6 | 4.03e6
CG31183 | 2 | 3.54e6 | 3.92e6 | 4.10e6
SmydA-6 (SET and MYND domain containing, arthropod-specific, member 6) | 1 | 3.60e6 | 4.02e6 | 4.13e6
CR14798 (pseudo) | 1 | 3.52e6 | 3.96e6 | 4.04e6
RnrL (Ribonucleoside diphosphate reductase large subunit) | 1 | 3.24e6 | 3.64e6 | 3.62e6
Polr1E (RNA polymerase I subunit E) | 1 | 3.53e6 | 3.78e6 | 4.24e6
Polr1E (RNA polymerase I subunit E) | 2 | 3.68e6 | 4.24e6 | 4.06e6
kipf (kipferl) | 1 | 3.59e6 | 4.18e6 | 3.94e6
kipf (kipferl) | 2 | 3.54e6 | 3.94e6 | 4.10e6
Rgk2 (Rad, Gem/Kir family member 2) | 1 | 3.57e6 | 4.02e6 | 4.08e6
Rgk2 (Rad, Gem/Kir family member 2) | 2 | 3.59e6 | 4.13e6 | 4.01e6
Smyd4-2 (SET and MYND domain containing, class 4, member 2) | 1 | 3.30e6 | 3.82e6 | 3.59e6
schuy (schumacher-levy) | 1 | 3.49e6 | 3.93e6 | 3.95e6
CG34234 + Dh44-R2 | 1 | 3.53e6 | 4.01e6 | 4.00e6
CG8858 | 1 | 3.58e6 | 3.86e6 | 3.70e6
CycY (Cyclin Y) | 1 | 3.81e6 | 4.20e6 | 4.44e6
flr (flare) | 1 | 3.38e6 | 3.94e6 | 3.79e6
tra2 (transformer 2) | 1 | 3.53e6 | 3.88e6 | 4.13e6
Ugt35D1 (UDP-glycosyltransferase family 35 member D1) | 1 | 3.27e6 | 3.78e6 | 3.72e6
orion | 1 | 3.79e6 | 4.37e6 | 4.26e6
orion | 2 | 3.59e6 | 4.01e6 | 4.14e6
TfIIS (RNA polymerase II elongation factor) | 1 | 3.46e6 | 4.16e6 | 3.66e6
Mst57Da + alpha4GT2 | 1 | 3.45e6 | 3.91e6 | 3.89e6
CG13924 | 1 | 3.49e6 | 4.02e6 | 3.91e6
CG11068 | 1 | 3.60e6 | 4.13e6 | 4.03e6
CG9692 | 1 | 3.71e6 | 4.22e6 | 4.12e6
CG42394 + CG6567 | 1 | 3.40e6 | 3.88e6 | 3.85e6
epsilonCOP (Coat Protein (coatomer) epsilon) | 1 | 3.38e6 | 3.94e6 | 3.60e6
CG15286 | 1 | 3.60e6 | 4.11e6 | 4.05e6
Jon25Bi (Jonah 25Bi) | 1 | 3.49e6 | 3.99e6 | 3.92e6
CG3587 | 1 | 3.57e6 | 3.98e6 | 4.12e6
CG3587 | 2 | 3.49e6 | 4.00e6 | 3.92e6
Ama (Amalgam) | 1 | 3.54e6 | 4.07e6 | 3.95e6
Tret1-1 (Trehalose transporter 1-1) | 1 | 3.56e6 | 4.00e6 | 4.04e6
Tret1-1 (Trehalose transporter 1-1) | 2 | 3.37e6 | 3.84e6 | 3.87e6
hpRNA:CR32205 (hairpin RNA:CR32205) | 1 | 3.62e6 | 4.06e6 | 4.14e6
polo | 1 | 3.73e6 | 4.19e6 | 4.20e6
polo | 2 | 3.11e6 | 3.80e6 | 3.79e6
Mct1 (Monocarboxylate transporter 1) | 1 | 3.50e6 | 3.97e6 | 3.98e6
Sidpn (similar to Deadpan) | 1 | 3.79e6 | 4.12e6 | 4.49e6
CG5966 | 1 | 3.55e6 | 3.91e6 | 4.13e6
CG9406 | 1 | 3.36e6 | 3.68e6 | 3.90e6
obst-J (obstructor-J) | 1 | 3.67e6 | 4.21e6 | 4.06e6
Indy (I'm not dead yet) | 1 | 3.57e6 | 3.98e6 | 4.11e6
qua (quail) | 1 | 3.49e6 | 3.91e6 | 4.01e6
CG8468 | 1 | 3.47e6 | 3.94e6 | 4.08e6
CG10321 | 1 | 1.65e6 | 3.86e6 | 3.76e6
CG6142 | 1 | 3.35e6 | 3.76e6 | 3.76e6
CG31055 | 1 | 3.63e6 | 4.20e6 | 4.02e6
en (engrailed) | 1 | 3.60e6 | 4.06e6 | 4.14e6
CG11635 + spaw | 1 | 3.55e6 | 3.94e6 | 4.09e6
Jhbp4 (Juvenile hormone binding protein 4) | 1 | 3.60e6 | 4.19e6 | 4.00e6
Irk3 (Inwardly rectifying potassium channel 3) | 1 | 3.59e6 | 4.05e6 | 4.10e6
Cpr65Aw (Cuticular protein 65Aw) | 1 | 3.40e6 | 3.89e6 | 3.79e6
CG9287 | 1 | 3.60e6 | 4.15e6 | 4.08e6
CG9287 | 2 | 3.35e6 | 3.92e6 | 3.81e6

Entries above whose gene name starts with I or i (2):
gene knocked down | reagent no. | mean viability with MMS | viability with MMS, replicate 1 | viability with MMS, replicate 2
Indy (I'm not dead yet) | 1 | 3.57e6 | 3.98e6 | 4.11e6
Irk3 (Inwardly rectifying potassium channel 3) | 1 | 3.59e6 | 4.05e6 | 4.10e6
